Source: patent publication US20160272645A1, “Heterocyclic Compounds and Methods of Use” (MEDIVATION TECHNOLOGIES, INC., priority 2013, published 2016)
The match of structure and compound is tentative.

The chains behind the UniProt entries cited, without tags or fusion partners. Where a name states a change or a piece, a line headed by the entry shows the natural chain unless it says otherwise.
UniProt Q06187, whole entry: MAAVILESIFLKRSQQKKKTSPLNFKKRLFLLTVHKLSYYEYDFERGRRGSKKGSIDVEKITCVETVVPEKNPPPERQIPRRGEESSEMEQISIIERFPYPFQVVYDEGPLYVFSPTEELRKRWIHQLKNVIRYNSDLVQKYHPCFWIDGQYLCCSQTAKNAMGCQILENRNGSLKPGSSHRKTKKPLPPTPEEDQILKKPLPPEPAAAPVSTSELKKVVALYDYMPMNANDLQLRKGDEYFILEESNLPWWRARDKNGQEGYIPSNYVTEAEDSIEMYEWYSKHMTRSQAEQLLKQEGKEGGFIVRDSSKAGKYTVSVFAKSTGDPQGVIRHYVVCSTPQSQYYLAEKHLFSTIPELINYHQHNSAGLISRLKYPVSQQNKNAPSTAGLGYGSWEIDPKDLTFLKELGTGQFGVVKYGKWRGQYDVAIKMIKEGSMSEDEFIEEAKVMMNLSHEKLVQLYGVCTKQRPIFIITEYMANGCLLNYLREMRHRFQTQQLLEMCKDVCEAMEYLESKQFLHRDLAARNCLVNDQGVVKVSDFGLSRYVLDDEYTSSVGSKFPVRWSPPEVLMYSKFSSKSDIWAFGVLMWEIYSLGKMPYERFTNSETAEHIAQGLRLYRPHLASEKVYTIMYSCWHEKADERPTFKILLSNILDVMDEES
UniProt O00329, whole entry: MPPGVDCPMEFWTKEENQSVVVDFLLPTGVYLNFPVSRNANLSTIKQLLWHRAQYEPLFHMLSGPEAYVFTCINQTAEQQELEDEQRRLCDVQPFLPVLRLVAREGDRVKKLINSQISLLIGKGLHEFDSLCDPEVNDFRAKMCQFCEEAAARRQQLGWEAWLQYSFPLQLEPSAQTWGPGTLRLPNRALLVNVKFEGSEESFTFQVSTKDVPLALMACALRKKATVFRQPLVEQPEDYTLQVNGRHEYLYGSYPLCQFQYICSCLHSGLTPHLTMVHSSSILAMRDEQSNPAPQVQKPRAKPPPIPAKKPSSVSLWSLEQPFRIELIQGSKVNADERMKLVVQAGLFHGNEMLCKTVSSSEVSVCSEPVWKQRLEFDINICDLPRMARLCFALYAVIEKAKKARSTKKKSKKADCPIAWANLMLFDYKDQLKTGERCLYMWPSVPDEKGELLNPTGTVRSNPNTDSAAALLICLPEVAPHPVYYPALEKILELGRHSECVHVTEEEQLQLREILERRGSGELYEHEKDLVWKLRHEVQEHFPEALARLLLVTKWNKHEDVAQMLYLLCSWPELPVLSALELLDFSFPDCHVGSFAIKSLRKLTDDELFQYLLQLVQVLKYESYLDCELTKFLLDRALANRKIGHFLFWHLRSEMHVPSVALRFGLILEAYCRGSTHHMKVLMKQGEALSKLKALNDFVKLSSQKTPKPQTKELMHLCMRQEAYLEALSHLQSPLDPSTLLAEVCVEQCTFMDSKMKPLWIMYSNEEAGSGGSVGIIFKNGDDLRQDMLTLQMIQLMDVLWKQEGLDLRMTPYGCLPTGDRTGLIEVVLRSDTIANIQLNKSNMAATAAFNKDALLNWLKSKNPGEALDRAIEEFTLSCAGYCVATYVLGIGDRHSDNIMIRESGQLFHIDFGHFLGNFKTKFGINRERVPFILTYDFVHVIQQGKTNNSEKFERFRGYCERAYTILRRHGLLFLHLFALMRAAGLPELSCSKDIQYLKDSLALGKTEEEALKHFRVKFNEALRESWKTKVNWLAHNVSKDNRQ
UniProt P27986, whole entry partner: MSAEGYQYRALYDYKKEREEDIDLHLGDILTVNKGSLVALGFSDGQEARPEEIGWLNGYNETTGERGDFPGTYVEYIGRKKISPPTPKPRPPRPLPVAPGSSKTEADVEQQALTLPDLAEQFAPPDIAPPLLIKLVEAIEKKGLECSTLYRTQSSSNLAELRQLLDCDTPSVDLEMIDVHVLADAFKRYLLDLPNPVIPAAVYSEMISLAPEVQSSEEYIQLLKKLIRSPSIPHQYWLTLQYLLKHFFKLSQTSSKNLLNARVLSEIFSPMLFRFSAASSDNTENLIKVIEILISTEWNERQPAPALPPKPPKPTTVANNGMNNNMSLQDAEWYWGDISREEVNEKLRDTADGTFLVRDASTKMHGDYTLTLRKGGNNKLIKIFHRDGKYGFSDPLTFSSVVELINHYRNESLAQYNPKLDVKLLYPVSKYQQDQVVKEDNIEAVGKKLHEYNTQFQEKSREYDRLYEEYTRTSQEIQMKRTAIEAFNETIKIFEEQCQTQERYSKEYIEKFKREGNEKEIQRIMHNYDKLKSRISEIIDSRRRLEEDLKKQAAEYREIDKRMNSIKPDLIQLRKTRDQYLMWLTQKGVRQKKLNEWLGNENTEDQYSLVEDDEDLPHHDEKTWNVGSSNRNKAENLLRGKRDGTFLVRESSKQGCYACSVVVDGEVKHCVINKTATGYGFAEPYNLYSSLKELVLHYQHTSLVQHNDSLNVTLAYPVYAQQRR

Columns and labels:
BTK = BTK (Homo sapiens, UniProt Q06187); experiment: BTK kinase profiling, HotSpot radiometric assay (Reaction Biology); details: read-out: BTK IC50; 10 dose IC50; ATP 10 μM; tested form: TFA salt
Procedure: (§1) Compounds of the invention were profiled in a 10 dose IC50 panel against BTK and PI3Kδ, both provided by Reaction Biology Corporation.
BTK assay: In vitro profiling protein kinases was performed using the “HotSpot” assay platform. Briefly, specific kinase/substrate pairs along with required cofactors were prepared in reaction buffer. Compounds were prepared as 10 mM stock solutions in DMSO. Compounds were delivered into the reaction, followed 15-20 minutes later by addition of a mixture of ATP (Sigma, St. Louis Mo.) and ^33P ATP (Perkin Elmer, Waltham Mass.) to a final concentration of 10 μM. Reactions were carried out at RT for 120 min, followed by spotting of the reactions onto P81 ion exchange filter paper (Whatman Inc., Piscataway, N.J.). Unbound phosphate was removed by extensive washing of filters in 0.75% Phosphoric acid. […] ICso values and curve fits were obtained using Prism (GraphPad Software). Buffer Conditions: 20 mM Hepes (pH 7.5), 10 mM MgCl2, 1 mM EGTA, 0.02% Brij35, 0.02 mg/mL BSA, 0.1 mM Na3VO4, 2 mM DTT, 1% DMSO.

PI3Kδ = PI3Kδ (Homo sapiens, UniProt O00329); experiment: PI3Kδ kinase profiling, HTRF PIP3 displacement assay (Reaction Biology); details: read-out: PI3Kδ IC50; 10 dose IC50; ATP 10 μM; tested form: TFA salt
Description: as §1
PI3Kδ assay: The PIP3 product is detected by displacement of biotin-PIP3 from an energy transfer complex consisting of Europium labeled anti-GST monoclonal antibody, a GST-tagged pleckstrin homology (PH) domain, biotinylated PIP3 and Streptavidin-Allophycocyanin (APC). Excitation of Europium in the complex results in an energy transfer to the APC and a fluorescent emission at 665 nm. The PIP3 product formed by PI3-Kinase (h) activity displaces biotin-PIP3 from the complex resulting in a loss of energy transfer and thus a decrease in signal. This is a 3-step reaction: First, the kinase reaction with PIP2 substrate is carried out in the presence of ATP (10 μM), and the reaction is quenched with stop Solution, and then finally detect by adding Detection Mixture followed by incubation (10 min). Reaction procedure: 1) Prepare substrate in freshly prepared Reaction Buffer. 2) Deliver kinase into the substrate solution and gently mix. 3) Deliver compounds in 100% DMSO (1 μM) into the kinase reaction mixture by Acoustic technology (Echo550; nanoliter range), incubate for 10 min at RT. 4) Deliver ATP into the reaction mixture to initiate the reaction. 5) Incubate for 30 min at 30° C. 6) Quench the reaction with Stop Solution. […]

[1] = tested on: CD69+B220+ cells (mouse spleen cells); experiment: B cell activation assay (IgD-stimulated CD69 on B220+ spleen cells, FACS); details: 100 nM test compound, 30 min, then IgD 3 μg/mL 4 h, tested form: TFA salt
Procedure: 1 Female mouse approximately 2 months old was euthanized with CO2 and the spleen removed. The tissue was homogenized with a polished glass microscope slide. The cells were collected in 5 mL complete medium (RPMI+10% FBS+pen/strep), placed in a 15 mL falcon tube and centrifuged at 500×g for 5 min. The supernatant was discarded and the pellet was resuspended in 3 mL of ACK lysis buffer (NH4Cl 0.17M, KHCO3 10 mM, EDTA-Na2 0.1 mM, pH 7.2), incubated at 37° C. for 5 min. 2 mL complete medium was added and the mixture centrifuged at 500×g for 5 min. The supernatant was discarded and the pellet resuspended in 1 mL complete medium. The mixture was passed through a […] cell strainer and collect in 50 mL falcon tube. Enough medium was added to have a total of 10 mL. The cells were counted and seeded in 24 or 48-well plate in 1 mL complete medium at 10^6 cells/mL. The plate was placed in a 37° C. incubator for 15 min. The cells were treated for 30 min at 37° C. with 100 nM test compound dissolved in 100% DMSO. 3 μL IgD (Accurate chemical and scientific corp.) was added at a final concentration of 3 μg/mL and the mixture incubated at 37° C. for 4 h. […] The samples were run in the FACS Canto II cytometer and quantified by the number of CD69+B220+ cells as a percentage of the total number of B220+ alive cells.

SMILES: Nc1ncnc2c1c(-c1cc(O)cc(F)c1)nn2CCNC(=O)c1ccc(F)cc1Cl
- IC50 (BTK): 4.78 µM
- IC50 (PI3Kδ): 0.023 µM
- CD69 @ 100 nM (% Inh) [1]: 12.77 ± 6.00 (n = 6) % Inh
